About 1,300 (59%) of roughly 2,200 compounds were called active. The rule behind the calls is not given here. The set was probably picked from earlier hits. Only a part is listed here, and it is no random draw. Measured potencies and affinities stand elsewhere.

A short description of the assay: THP-1 cell cytotoxicity, dose response, cytotoxicity control for Salmonella PhoP regulon inhibitors, S. typhimurium screen hits (AID 2253). The following applies: THP-1 viability, CellTiter-Glo luminescence, 72 h; at 50 µM (top of the series). Background: In ATP-based viability assays light output follows the ATP content of the culture.
For `CN(C)[C@@H]1C(=O)C(C(N)=O)=C(O)[C@@]2(O)C(=O)C3=C(O)c4c(O)cccc4[C@@](C)(O)C3[C@H](O)C12` (stereo partly specified), the viability (as a rule, the share of living cells, or the viability signal relative to a control) is inactive: 84.5%.

For the origin of these results see PubChem BioAssay AID2253 (Southern Research Specialized Biocontainment Screening …, 2010).
